Assay results: PMC11484822
No constants are given. Whether binding was seen depends on the method and setting. Binding seen in cells or lysates may run through a third protein. Some entries that bind do so weakly or less than the wild type. Values belong to the molecule of their own block, whether it stands above or below them.

Chains of the proteins cited; added tags and fusions are not shown. Lines headed by an entry give the natural chain unless they say otherwise; changes in a name come on top.
UniProt Q14974: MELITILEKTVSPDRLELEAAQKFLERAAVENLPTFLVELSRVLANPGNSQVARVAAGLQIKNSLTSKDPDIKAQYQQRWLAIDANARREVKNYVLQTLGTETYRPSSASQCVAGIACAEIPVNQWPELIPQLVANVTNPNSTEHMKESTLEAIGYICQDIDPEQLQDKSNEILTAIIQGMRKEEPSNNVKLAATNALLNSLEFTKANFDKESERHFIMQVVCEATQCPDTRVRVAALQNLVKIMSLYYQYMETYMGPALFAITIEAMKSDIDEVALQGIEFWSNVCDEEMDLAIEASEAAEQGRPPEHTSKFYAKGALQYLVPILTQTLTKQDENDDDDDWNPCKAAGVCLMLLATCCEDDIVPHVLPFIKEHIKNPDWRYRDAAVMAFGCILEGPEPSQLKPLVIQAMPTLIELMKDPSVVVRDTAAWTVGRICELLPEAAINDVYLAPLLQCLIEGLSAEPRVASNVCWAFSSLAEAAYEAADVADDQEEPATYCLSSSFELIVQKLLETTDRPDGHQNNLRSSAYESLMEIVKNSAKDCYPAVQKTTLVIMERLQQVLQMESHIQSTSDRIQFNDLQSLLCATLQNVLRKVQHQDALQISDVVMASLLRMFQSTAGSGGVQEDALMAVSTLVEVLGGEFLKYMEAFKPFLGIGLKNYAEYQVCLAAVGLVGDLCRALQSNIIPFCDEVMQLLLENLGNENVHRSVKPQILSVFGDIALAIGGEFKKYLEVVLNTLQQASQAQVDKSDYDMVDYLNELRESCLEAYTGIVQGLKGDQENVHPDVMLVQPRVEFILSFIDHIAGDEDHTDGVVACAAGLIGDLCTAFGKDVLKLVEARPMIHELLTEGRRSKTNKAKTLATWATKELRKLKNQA
UniProt Q96SK2: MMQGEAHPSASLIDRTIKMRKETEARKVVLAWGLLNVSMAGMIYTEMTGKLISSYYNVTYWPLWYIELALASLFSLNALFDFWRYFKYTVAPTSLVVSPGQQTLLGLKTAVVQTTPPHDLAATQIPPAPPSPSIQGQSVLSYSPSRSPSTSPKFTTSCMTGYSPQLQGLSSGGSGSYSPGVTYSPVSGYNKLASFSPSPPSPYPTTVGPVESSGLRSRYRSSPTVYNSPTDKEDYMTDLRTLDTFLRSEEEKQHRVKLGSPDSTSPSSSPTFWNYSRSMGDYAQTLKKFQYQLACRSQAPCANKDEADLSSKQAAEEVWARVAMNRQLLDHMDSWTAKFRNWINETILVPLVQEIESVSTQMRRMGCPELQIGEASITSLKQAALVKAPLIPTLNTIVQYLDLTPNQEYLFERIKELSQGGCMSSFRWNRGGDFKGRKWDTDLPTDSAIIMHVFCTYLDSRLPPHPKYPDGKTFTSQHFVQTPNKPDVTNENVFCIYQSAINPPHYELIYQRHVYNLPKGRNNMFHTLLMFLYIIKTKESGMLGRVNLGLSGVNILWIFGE

Key:
[1] = biological target: HA-KPNB1 expressed in HEK-293T cells (UniProt Q14974); test: co-IP; HEK-293T cells transfected with Flag-TMEM209 or HA-KPNB1, alone or simultaneously; IP lysis buffer, antibody-bound magnetic beads, 4 °C, 12 h; western blot
[2] = biological target: KPNB1 of the GST pull-down (UniProt Q14974); test: pull-down; GST pull-down, 'in HEK-293T cells'; which partner carried GST is not stated
[3] = biological target: TMEM209 of the IP mapping assays in HEK-293T cells (UniProt Q96SK2); test: co-IP; IP mapping with fragments of KPNB1 in HEK-293T cells; western blot
[4] = biological target: Karyopherin-β1 (KPNB1), endogenous in MHCC-97H and Huh7 cells (human (endogenous in MHCC-97H and Huh7)) (UniProt Q14974); test: co-IP; endogenous proteins in wild-type MHCC-97H and Huh7 cells; western blot
[5] = biological target: Flag-TMEM209 expressed in HEK-293T cells (UniProt Q96SK2); test: co-IP; HEK-293T cells transfected with Flag-TMEM209 or HA-KPNB1, alone or simultaneously; IP lysis buffer, antibody-bound magnetic beads, 4 °C, 12 h; western blot
[6] = biological target: Karyopherin-β1 (KPNB1), endogenous in MHCC-97H and Huh7 cells (human (endogenous in MHCC-97H and Huh7)) (UniProt Q14974); test: co-IP; KPNB1 and RCHY1 in MHCC-97H/Huh7 cells; western blot
[7] = biological target: Karyopherin-β1 (KPNB1), endogenous in MHCC-97H and Huh7 cells (human (endogenous in MHCC-97H and Huh7)) (UniProt Q14974); test: co-IP; KPNB1 and RCHY1 in MHCC-97H/Huh7 cells overexpressing TMEM209 or transfected with increasing doses of TMEM209; western blot

Molecule: Flag-TMEM209 expressed in HEK-293T cells (from UniProt Q96SK2 1-561)
binding [1]: binds

Molecule: KPNB1 residues 1-211 (from UniProt Q14974 1-211) (domain or fragment)
binding [3]: binds

Molecule: HA-KPNB1 expressed in HEK-293T cells (from UniProt Q14974 1-876)
binding [5]: binds

B1: RING finger and CHY zinc finger domain-containing protein 1 (RCHY1) (enzyme, UniProt Q96PM5 1-261)
chain: MAATAREDGASGQERGQRGCEHYDRGCLLKAPCCDKLYTCRLCHDNNEDHQLDRFKVKEVQCINCEKIQHAQQTCEECSTLFGEYYCDICHLFDKDKKQYHCENCGICRIGPKEDFFHCLKCNLCLAMNLQGRHKCIENVSRQNCPICLEDIHTSRVVAHVLPCGHLLHRTCYEEMLKEGYRCPLCMHSALDMTRYWRQLDDEVAQTPMPSEYQNMTVDILCNDCNGRSTVQFHILGMKCKICESYNTAQAGGRRISLDQQ
binding [6]: binds | binding [7]: binds

Other lines, results leading:

binding [2]: binds
Molecule: TMEM209 of the GST pull-down (from UniProt Q96SK2 1-561)

binding [4]: binds
Molecule: Transmembrane protein 209 (TMEM209), endogenous in MHCC-97H and Huh7 cells (from UniProt Q96SK2 1-561)
